Measurements published in patent publication US9708498B2, “Azo compound, ink containing azo compound, display including said ink and electronic paper” (MITSUBISHI CHEMICAL CORPORATION, priority 2012, dated 2017).

Assay: Absorption spectrum of n-decane solution: solution color, absorption maximum wavelength λmax, molar extinction coefficient ε
Assay type: physicochemical
Conditions: solution color of ink in n-decane
Method: The solution color, absorption maximum wavelength (λmax), solubility C in 5° C. n-decane, molar extinction coefficient ε, and εC of each ink are summarized in Table 4.
One milligram of each of compound 1 and comparative compounds 1 and 2 was dissolved in 100 mL of the solvent, and the solution was examined for absorption spectrum with Hitachi Spectrophotometer U-4100 using a quartz cell having a measuring optical-path length of 10 mm. From the spectrum obtained, the absorption maximum wavelength λmax (nm) and the molar extinction coefficient E (L·mol^−1·cm^−1) were determined.

| Structure (SMILES) | Color tone |
| --- | --- |
| CCCCc1ccc(N=Nc2sc(N=Nc3ccc(N(CC(CC)CCCC)CC(CC)CCCC)cc3C)c(C#N)c2C)cc1 (centres unmarked) [Compound 2] | blue |
| CCCCC(CC)CN(CC(CC)CCCC)c1ccc(N=Nc2sc(N=Nc3ccc(CCC)cc3)c(C)c2C#N)c(NC(C)=O)c1 (centres unmarked) [Compound 3] | blue |
| CCCCc1ccc(N=Nc2sc(N=Nc3cc(OCC)c(N(CC(CC)CCCC)CC(CC)CCCC)cc3OCC)c(C#N)c2C)cc1 (centres unmarked) [Compound 4] | blue |
| CCCCCc1ccc(N=Nc2cc(C(=O)OCCC)c(N=Nc3ccc(N(CC(CC)CCCC)CC(CC)CCCC)cc3CC)s2)cc1 (centres unmarked) [Compound 5] | blue |
| CCCCc1ccc(N=Nc2cc(C(=O)OCCC)c(N=Nc3ccc(N(CC(CC)CCCC)CC(CC)CCCC)cc3C)s2)cc1 (centres unmarked) [Compound 7] | blue |
| CCCCc1ccc(N=Nc2cc(C#N)c(N=Nc3sc(N(CC(CC)CCCC)CC(CC)CCCC)nc3C(C)(C)C)s2)cc1 (centres unmarked) [Compound 10] | blue |
| CCCCc1ccc(N=Nc2cc(C#N)c(N=Nc3sc(N(CC(CC)CCCC)CC(CC)CCCC)nc3C(C)(C)C)s2)c(C)c1 (centres unmarked) [Compound 11] | blue |
| CCCCCCSc1nnc(N=Nc2cc(OC)c(N(Cc3ccc(C(C)(C)C)cc3)Cc3ccc(C(C)(C)C)cc3)cc2NC(C)=O)s1 [compound 1, reference compound] | red |
